Laboratory results: PubChem BioAssay AID504444 (National Center for Advancing Translational Sciences (NCATS), 2011)
Screen size: about 360,000 compounds; about 7,500 (2.1%) were called active. Inconclusive means that the source gave no clear call. Such entries were picked first, then a sample of the others. The call rests on the fitted dose curve; in most records, active means well fitted inhibition curve with a large enough effect; inconclusive means small, poorly fitted or top-dose-only effect, or effect the other way; inactive means flat fitted curve, though single readings scatter. Potencies beside an inconclusive call are fits to weak or partial responses and may not hold up.
Potency means the concentration at half of the fitted maximal effect.

Assay: Nrf2 qHTS screen for inhibitors; further: nearly all actives have a fitted effect of over 60% in size
Details: A549 ARE-Fluc reporter, luciferase luminescence, 18-24 h; series mostly up to 46 µM
Procedure, shortened: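 Nrf2 activity is the BugLite luminescence, read 15 min after reagent at room temperature, following CellTiter-Fluor cytotoxicity readout (30 min, 37C). Compound titrations were applied for 18-24 h to 5000 A549 ARE_Fluc cells/well in 5% FBS OPTI-MEM.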
In the case of `CC(=O)O[C@H]1C(=O)[C@@]2(C)[C@H]([C@H](OC(=O)c3ccccc3)[C@]3(O)C[C@H](OC(=O)[C@H](O)[C@@H](NC(=O)c4ccccc4)c4ccccc4)C(C)=C1C3(C)C)[C@]1(OC(C)=O)CO[C@@H]1C[C@@H]2O`, the Potency is reported as “inactive”. For `COc1ccc(C)cc1N(C(=O)COc1ccccc1)c1nc2ccccc2s1`, the Potency was inconclusive: 2.06 µM [activator, partial curve, poor fit]. For `COc1cccc(C(C(=O)NC2CCCCC2)N(C(=O)c2ccco2)c2ccc(-n3cnnn3)c(C)c2)c1` (stereo unspecified), the Potency was “inactive”. With `CCOC(=O)c1cn[nH]c1NC(=S)Nc1ccccc1` the Potency was inconclusive: 8.2 µM [activator, partial curve]. In the case of `CCOc1cc(/C=C(/C#N)c2nc3ccccc3[nH]2)ccc1Oc1ccc([N+](=O)[O-])cn1`, the Potency is reported as inconclusive: 18.4 µM [falling, single point]. In the case of `FC(F)(F)c1ccc(N2CCN(c3cc(-c4ccccc4)nc4ncnn34)CC2)nc1`, the Potency is reported as active: 14.6 µM. With `COc1cccc(OC)c1C(=O)Nc1cc(C)nn1-c1nc2ccccc2[nH]1` the Potency was inconclusive: 29.1 µM [falling, single point]. With `COc1ccccc1OCCC(=O)Nc1cccc(S(=O)(=O)N2CCOCC2)c1` the Potency was inconclusive: 23.1 µM [falling, single point]. For `OCCN(CCO)c1ncnc2c1sc1nc(N3CCOCC3)c3c(c12)CCCC3`, the Potency was inconclusive: 25.9 µM [falling, single point]. For `O=C1OC(CCl)CN1Cc1c(Cl)cccc1Cl` (stereo unspecified), the Potency was inconclusive: 7.31 µM [falling, partial curve, poor fit]. In the case of `Cc1cccc(-n2c(=O)c3ccccc3n(Cc3ccc(F)cc3)c2=O)c1`, the Potency is reported as “inactive”. In the case of `Cc1ccc(C(=O)Nc2nncs2)cc1S(=O)(=O)N1CCOCC1`, the Potency is reported as inconclusive: 29.1 µM [falling, partial curve, poor fit]. For `O=C(Cc1ccc(NC(=O)C2CCCN(C(=O)c3ccccc3)C2)cc1)Nc1ccc(C(=O)N2CCOCC2)cc1` (stereo unspecified), the Potency was inconclusive: 6.51 µM [activator, single point]. With `O=C(c1ccccc1[N+](=O)[O-])N1CC2C3C=CC(C3)C2C1` (stereo unspecified) the Potency was inconclusive: 32.6 µM [activator, partial curve, poor fit]. For `COc1ccc(-c2noc3c2-c2nc(-c4c(F)cccc4F)sc2CC3)cc1`, the Potency was inconclusive: 23.1 µM [activator, partial curve, poor fit]. In the case of `CCc1ccc(Nc2nc3ccccc3nc2NS(=O)(=O)c2ccccc2)cc1`, the Potency is reported as active: 23.1 µM. For `Nc1nc(CN2CCN(c3ccccc3F)CC2)nc(Nc2ccccc2)n1`, the Potency was inconclusive: 29.1 µM [activator, partial curve, poor fit]. With `Cc1ccc(NC(=O)Cc2nc(CCl)cs2)cc1` the Potency was inconclusive: 2.06 µM [falling, partial curve, poor fit]. For `Cc1ccc2cc(C(c3nnnn3C3CCCC3)N3CCOCC3)c(=O)[nH]c2c1C` (stereo unspecified), the Potency was “inactive”. For `O=C(Nc1cccc2ccccc12)C(=O)C1C(=O)Nc2ccccc21` (stereo unspecified), the Potency was inconclusive: 29.1 µM [falling, single point]. For `Cc1nc2ccc(NC(=S)NC(C)C)cc2nc1C`, the Potency was inconclusive: 29.1 µM [activator, single point]. With `O=C(NCCCOc1cccc(CN2CCCCC2)c1)c1ccc(Cl)c(Cl)c1` the Potency was “inactive”. For `CN(c1ccccc1)S(=O)(=O)c1cccc(C(=O)Nc2ccc(N3CCOCC3)cc2)c1`, the Potency was active: 14.6 µM. For `CCCCOC(=O)c1ccc(NC(=O)c2sc3nc(C)cc(C)c3c2N)cc1`, the Potency was inconclusive: 3.26 µM [activator, partial curve]. For `COc1ccc(N(C)C(=O)Cn2cc(S(=O)(=O)N3CCN(c4ccccc4F)CC3)c3ccccc3c2=O)c(OC)c1`, the Potency was “inactive”. In the case of `Cc1sc2nc(C3CC3)nc(SCC(=O)N3CC(=O)Nc4ccccc43)c2c1C`, the Potency is reported as active: 7.31 µM. In the case of `COc1ccc(N(C)S(=O)(=O)c2cccc(C(=O)Nc3ccc(-n4cnnn4)cc3)c2)cc1`, the Potency is reported as inconclusive: 29.1 µM [falling, single point]. With `COC(=O)c1ccc(C2CC(=O)Nc3cc(OC)c(OC)cc32)cc1` (stereo unspecified) the Potency was “inactive”. For `NC(=O)CSc1nnc(-c2cc(-c3cccs3)nc3ccccc23)o1`, the Potency was inconclusive: 11.6 µM [falling, partial curve]. For `CN(C)/C=N/c1ncn(-c2ncc(C(F)(F)F)cc2Cl)n1`, the Potency was inconclusive: 29.1 µM [activator, single point]. In the case of `O=C(NCCc1ccc(F)cc1)C(=O)NCC1CCCN1S(=O)(=O)c1ccccc1` (stereo unspecified), the Potency is reported as inconclusive: 18.4 µM [falling, partial curve, poor fit]. For `CCOC(=O)c1c(-c2cccs2)csc1NC(=O)CN1CCOCC1`, the Potency was “inactive”. In the case of `CCO[C@@H]1OC(C(=O)Nc2ccccc2)=C[C@H](c2coc3ccccc3c2=O)[C@H]1CCCO`, the Potency is reported as inconclusive: 10.3 µM [falling, partial curve]. In the case of `Cn1c(=O)c(C(=O)NC2CCCCCC2)c(O)c2ccccc21`, the Potency is reported as inconclusive: 0.411 µM [activator, full curve, poor fit]. For `Cc1cc(Cl)ccc1NC(=O)CCC(=O)O`, the Potency was inconclusive: 29.1 µM [activator, single point]. For `CC(C)CNC(=O)NC(=O)COC(=O)Cn1cnc2ccccc2c1=O`, the Potency was “inactive”. For `NC(=Nc1ccccc1)N(c1ccccc1)c1ccccc1`, the Potency was inconclusive: 23.1 µM [activator, single point]. For `COC(=O)Cc1c(C)c2ccc3c(c2oc1=O)CN(Cc1ccccc1Cl)CO3`, the Potency was inconclusive: 29.1 µM [activator, partial curve, poor fit]. For `O=C1CCC[C@@H]2[C@@H](Cc3ccccc3)[C@H](N3CCN(c4ccccc4)CC3)C[C@@H]3CCN1[C@@H]32`, the Potency was inconclusive: 23.1 µM [falling, single point]. For `O=[N+]([O-])c1ccc(O)c(/C=N/Nc2ccccc2Cl)c1`, the Potency was inconclusive: 20.6 µM [activator, single point]. With `O=C(Nc1cccc([N+](=O)[O-])c1)c1ccc(N2CCCC2=O)cc1` the Potency was inconclusive: 29.1 µM [falling, partial curve, poor fit].
